The other results are listed elsewhere or left out. Repeats are few or missing, and single values can be far off.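 Cells were imaged in 1,536-well plates, and nuclei stained with an antibody against cleaved PARP were counted against all DNA-stained nuclei to give the apoptosis fraction. Screening doses were chosen to leave most cells alive, and resting and induced cleaved-PARP levels differ strongly between cell lines.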
The compounds below were run on G361 (assay: cleaved PARP positive nuclei fraction relative to DMSO control; melanoma cells; higher = more apoptosis). Conditions: library dose: low library concentration; 72 h.

SMILES | cleaved PARP positive nuclei fraction
COCC[n+]1c2c(n(Cc3cnccn3)c1C)C(=O)c1ccccc1C2=O + CC(C)CCN1c2nc(Nc3cc(F)c(O)c(F)c3)ncc2N(C)C(=O)C1C [BID1870] (first compound 0.0004 µM, partner dose 0.2 µM) | 152%
CC(C)(C)c1cnc(CSc2cnc(NC(=O)C3CCNCC3)s2)o1 + Cc1cc([N+](=O)[O-])ccc1NS(=O)(=O)c1cc(Cl)ccc1Cl [FH535] (first compound 0.01 µM, partner dose 1 µM) | 214%
Cc1ccc(NC(=O)c2cccc(N(C)C)c2)cc1NC(=O)c1ccc(O)cc1 + CCCCCCCCCCCC1=C(O)C(=O)C=C(O)C1=O [Embelin] (first compound 2 µM, partner dose 1.2 µM) | 77.3%
Cc1ccc(NC(=O)c2cccc(N(C)C)c2)cc1NC(=O)c1ccc(O)cc1 + COc1cc(N2CCC(N3CCN(C)CC3)CC2)ccc1Nc1ncc(Cl)c(Nc2ccccc2S(=O)(=O)C(C)C)n1 [NVP-TAE684] (first compound 2 µM, partner dose 0.08 µM) | 47.7%
Cn1cncc1[C@@](N)(c1ccc(Cl)cc1)c1ccc2c(c1)c(-c1cccc(Cl)c1)cc(=O)n2C [tipifarnib] + CCc1ccc(CCOc2ccc(CC3SC(=O)NC3=O)cc2)nc1 [pioglitazone] (first compound 0.01 µM, partner dose 2 µM) | 98.7%
O=C(CCCCCCC(=O)Nc1ccccc1)NO [vorinostat] + COc1cc(N2CCC(N3CCN(C)CC3)CC2)ccc1Nc1ncc(Cl)c(Nc2ccccc2S(=O)(=O)C(C)C)n1 [NVP-TAE684] (first compound 0.08 µM, partner dose 0.08 µM) | 82.5%
O=C(Nc1cccc(Cl)c1)Nc1ncc(CCNc2ncnc3ccsc23)s1 + COC(=O)c1sccc1S(=O)(=O)Nc1ccc(Nc2ccccc2)cc1OC [GSK0660] (first compound 0.0008 µM, partner dose 1 µM) | 50.1%
C=CCn1c(=O)c2cnc(Nc3ccc(N4CCN(C)CC4)cc3)nc2n1-c1cccc(C(C)(C)O)n1 + CC(C)CCN1c2nc(Nc3cc(F)c(O)c(F)c3)ncc2N(C)C(=O)C1C [BID1870] (first compound 0.02 µM, partner dose 0.2 µM) | 63.3%
CO[C@@H]1[C@H](N(C)C(=O)c2ccccc2)C[C@H]2O[C@]1(C)n1c3ccccc3c3c4c(c5c6ccccc6n2c5c31)C(=O)NC4 [Midostaurin] + O=S(=O)(c1ccccc1)N(CC(F)(F)F)c1ccc(C(O)(C(F)(F)F)C(F)(F)F)cc1 [T0901317] (first compound 0.08 µM, partner dose 1.4 µM) | 89.5%
Nc1cccc2c1CN(C1CCC(=O)NC1=O)C2=O (centres undefined) [lenalidomide] + COC(=O)c1sccc1S(=O)(=O)Nc1ccc(Nc2ccccc2)cc1OC [GSK0660] (first compound 1 µM, partner dose 1 µM) | 177%
O=C(Nc1cccc(Cl)c1)Nc1ncc(CCNc2ncnc3ccsc23)s1 + CCc1ccc(CCOc2ccc(CC3SC(=O)NC3=O)cc2)nc1 [pioglitazone] (first compound 0.0008 µM, partner dose 2 µM) | 122%
COCC[n+]1c2c(n(Cc3cnccn3)c1C)C(=O)c1ccccc1C2=O + O=c1cc(-c2cccc3c2Sc2ccccc2S3)oc(N2CCOCC2)c1 [KU55933] (first compound 0.0004 µM, partner dose 1 µM) | 93.2%
Nc1cccc2c1CN(C1CCC(=O)NC1=O)C2=O (centres undefined) [lenalidomide] + COc1ccc(-c2ccc3c(N4CCOCC4)nc(N4C[C@@H](C)O[C@@H](C)C4)nc3n2)cc1CO [KU0063794] (first compound 1 µM, partner dose 0.02 µM) | 138%
NC(=O)Nc1cc(-c2cccc(F)c2)sc1C(=O)N[C@H]1CCCNC1 + Cn1cc(/C=C2\C(=O)Nc3cccnc32)c2ccccc21 [GW441756] (first compound 0.02 µM, partner dose 0.4 µM) | 50%
COc1cc(Nc2ncc(F)c(Nc3ccc4c(n3)NC(=O)C(C)(C)O4)n2)cc(OC)c1OC [Tamatinib] + COc1cc(N2CCC(N3CCN(C)CC3)CC2)ccc1Nc1ncc(Cl)c(Nc2ccccc2S(=O)(=O)C(C)C)n1 [NVP-TAE684] (first compound 0.4 µM, partner dose 0.08 µM) | 122%
NC(=O)Nc1cc(-c2cccc(F)c2)sc1C(=O)N[C@H]1CCCNC1 + CCN(CC)CCCCNc1ncc2cc(-c3cc(OC)cc(OC)c3)c(NC(=O)NC(C)(C)C)nc2n1 [PD173074] (first compound 0.02 µM, partner dose 0.1 µM) | 61.8%
O=C(CCCCCCC(=O)Nc1ccccc1)NO [vorinostat] + CCCCCCCCCCCC1=C(O)C(=O)C=C(O)C1=O [Embelin] (first compound 0.08 µM, partner dose 1.2 µM) | 155%

SMILES | cleaved PARP positive nuclei fraction
O=C(Nc1cccc(Cl)c1)Nc1ncc(CCNc2ncnc3ccsc23)s1 + COc1ccc(-c2ccc3c(N4CCOCC4)nc(N4C[C@@H](C)O[C@@H](C)C4)nc3n2)cc1CO [KU0063794] (first compound 0.0008 µM, partner dose 0.02 µM) | 101%
Cc1nc(Nc2ncc(C(=O)Nc3c(C)cccc3Cl)s2)cc(N2CCN(CCO)CC2)n1 [dasatanib] + CCN(CC)CCCCNc1ncc2cc(-c3cc(OC)cc(OC)c3)c(NC(=O)NC(C)(C)C)nc2n1 [PD173074] (first compound 0.004 µM, partner dose 0.1 µM) | 90.9%
CC1(C)NC(=O)N(c2ccc([N+](=O)[O-])c(C(F)(F)F)c2)C1=O [nilutamide] + COc1ccc(COc2ccc(Cc3cnc(N)nc3N)cc2OC)cc1 [GW2580] (first compound 1 µM, partner dose 1 µM) | 98.5%
COCC[n+]1c2c(n(Cc3cnccn3)c1C)C(=O)c1ccccc1C2=O + CCc1ccc(CCOc2ccc(CC3SC(=O)NC3=O)cc2)nc1 [pioglitazone] (first compound 0.0004 µM, partner dose 2 µM) | 157%
O=C(CCCCCCC(=O)Nc1ccccc1)NO [vorinostat] + COc1ccc(-c2ccc3c(N4CCOCC4)nc(N4C[C@@H](C)O[C@@H](C)C4)nc3n2)cc1CO [KU0063794] (first compound 0.08 µM, partner dose 0.02 µM) | 95.4%
COc1cc(Nc2ncc(F)c(Nc3ccc4c(n3)NC(=O)C(C)(C)O4)n2)cc(OC)c1OC [Tamatinib] + O=S(=O)(c1ccccc1)N(CC(F)(F)F)c1ccc(C(O)(C(F)(F)F)C(F)(F)F)cc1 [T0901317] (first compound 0.4 µM, partner dose 1.4 µM) | 317%
NC(=O)Nc1cc(-c2cccc(F)c2)sc1C(=O)N[C@H]1CCCNC1 + O=S(=O)(c1ccccc1)N(CC(F)(F)F)c1ccc(C(O)(C(F)(F)F)C(F)(F)F)cc1 [T0901317] (first compound 0.02 µM, partner dose 1.4 µM) | 67.6%
Cn1nnc2c(C(N)=O)ncn2c1=O [temozolomide] + COc1ccc(-c2ccc3c(N4CCOCC4)nc(N4C[C@@H](C)O[C@@H](C)C4)nc3n2)cc1CO [KU0063794] (first compound 2 µM, partner dose 0.02 µM) | 115%
Nc1cccc2c1CN(C1CCC(=O)NC1=O)C2=O (centres undefined) [lenalidomide] + c1cc(-c2cnn3cc(-c4ccc(OCCN5CCCCC5)cc4)cnc23)ccn1 [Dorsomorphin] (first compound 1 µM, partner dose 0.4 µM) | 393%
Cn1cncc1[C@@](N)(c1ccc(Cl)cc1)c1ccc2c(c1)c(-c1cccc(Cl)c1)cc(=O)n2C [tipifarnib] + c1cc(-c2cnn3cc(-c4ccc(OCCN5CCCCC5)cc4)cnc23)ccn1 [Dorsomorphin] (first compound 0.01 µM, partner dose 0.4 µM) | 198%
Cc1cc(N2CCOCC2)cc2[nH]c(-c3c(NC[C@@H](O)c4cccc(Cl)c4)cc[nH]c3=O)nc12 + Cn1cc(/C=C2\C(=O)Nc3cccnc32)c2ccccc21 [GW441756] (first compound 0.2 µM, partner dose 0.4 µM) | 146%
Cn1c(Nc2ccc(C(F)(F)F)cc2)nc2cc(Oc3ccnc(-c4ncc(C(F)(F)F)[nH]4)c3)ccc21 + Oc1nc(-c2ccc(C(F)(F)F)cc2)nc2c1CSCC2 [XAV939] (first compound 0.08 µM, partner dose 2 µM) | 136%
Cn1nnc2c(C(N)=O)ncn2c1=O [temozolomide] + CC(C)CCN1c2nc(Nc3cc(F)c(O)c(F)c3)ncc2N(C)C(=O)C1C [BID1870] (first compound 2 µM, partner dose 0.2 µM) | 72.6%
C[C@]1(c2nc3c(C(N)=O)cccc3[nH]2)CCCN1 [Veliparib] + O=C(O)C(=O)Nc1sc2c(c1C(=O)O)CCNC2 [TCS401] (first compound 1.4 µM, partner dose 1.66667 µM) | 59%
O=C(Nc1cccc(Cl)c1)Nc1ncc(CCNc2ncnc3ccsc23)s1 + COc1cc2ncnc(Nc3ccc(Oc4ccccc4)cc3)c2cc1OC [SrcI1] (first compound 0.0008 µM, partner dose 2 µM) | 120%
NC(=O)Nc1cc(-c2cccc(F)c2)sc1C(=O)N[C@H]1CCCNC1 + O=c1cc(-c2cccc3c2Sc2ccccc2S3)oc(N2CCOCC2)c1 [KU55933] (first compound 0.02 µM, partner dose 1 µM) | 146%
CC(C)(C)c1cnc(CSc2cnc(NC(=O)C3CCNCC3)s2)o1 + N#Cc1c(O)c2c(-c3ccc(-c4ccccc4O)cc3)csc2[nH]c1=O [A769662] (first compound 0.01 µM, partner dose 2 µM) | 27.3%

An excerpt of these results, as labelled records:
O=C(Nc1cccc(Cl)c1)Nc1ncc(CCNc2ncnc3ccsc23)s1 + COc1cc2ncnc(Nc3ccc(Oc4ccccc4)cc3)c2cc1OC [SrcI1] (first compound 0.0008 µM, partner dose 2 µM)
  cleaved PARP positive nuclei fraction: 120%
NC(=O)Nc1cc(-c2cccc(F)c2)sc1C(=O)N[C@H]1CCCNC1 + O=c1cc(-c2cccc3c2Sc2ccccc2S3)oc(N2CCOCC2)c1 [KU55933] (first compound 0.02 µM, partner dose 1 µM)
  cleaved PARP positive nuclei fraction: 146%

From the supplement of paper PMC4604168 (melanoma cell lines)
